Experiments:
CYP3A4 [1] = molecular target: T1, CYP3A4 (Homo sapiens, UniProt P08684)
CYP3A4 [2] = molecular target: T1, CYP3A4; experiment: in vitro; conditions: pH 8, % inhibition; for inhibition at 20 min, 10 µM: Condition A; for inhibition at 40 min, 10 µM: Condition B

Amino acid sequences for entries named in this document (tags omitted).
UniProt P08684, whole entry: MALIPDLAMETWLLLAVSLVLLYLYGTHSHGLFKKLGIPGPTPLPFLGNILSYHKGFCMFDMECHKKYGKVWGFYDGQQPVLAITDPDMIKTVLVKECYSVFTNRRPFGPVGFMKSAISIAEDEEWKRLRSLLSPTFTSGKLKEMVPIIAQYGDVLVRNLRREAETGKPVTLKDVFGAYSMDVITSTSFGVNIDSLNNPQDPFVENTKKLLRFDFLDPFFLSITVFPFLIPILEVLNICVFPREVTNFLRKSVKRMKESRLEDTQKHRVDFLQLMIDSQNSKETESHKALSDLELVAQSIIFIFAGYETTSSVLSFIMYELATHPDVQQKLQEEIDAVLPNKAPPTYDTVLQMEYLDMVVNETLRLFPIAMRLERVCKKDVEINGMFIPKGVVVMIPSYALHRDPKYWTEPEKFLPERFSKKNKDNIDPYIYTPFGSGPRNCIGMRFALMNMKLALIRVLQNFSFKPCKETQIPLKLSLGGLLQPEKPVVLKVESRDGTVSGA

| Structure (SMILES) | metabolism-dependent inhibitory activity against the CYP3A4 isozyme (CYP3A4 [1]) | inhibition at 20 min, 10 µM (CYP3A4 [2]; substrate BOMCC) | inhibition at 20 min, 10 µM (CYP3A4 [2]; substrate BOMR) | inhibition at 20 min, 10 µM (CYP3A4 [2]; substrate DBOMF) | inhibition at 40 min, 10 µM (CYP3A4 [2]; substrate BOMCC) | inhibition at 40 min, 10 µM (CYP3A4 [2]; substrate BOMR) | inhibition at 40 min, 10 µM (CYP3A4 [2]; substrate DBOMF) |
| --- | --- | --- | --- | --- | --- | --- | --- |
| CCN(CC)CCOC(=O)C1(C2CCCCC2)CCCCC1 [Dicyclomine] | at least partial metabolism-dependent inhibitory activity | 76% | 77% | 30% | – | – | – |
| CN1CCC[C@@H]1CCO[C@](C)(c1ccccc1)c1ccc(Cl)cc1 [Clemastine] | at least partial metabolism-dependent inhibitory activity | 82% | 62% | 32% | 95% | 85% | 80% |
